Some of the results follow.
Columns and labels:
Experiment in all cases: log2 fold change, soluble protein after heating vs DMSO (PISA); higher = thermal stabilisation; K562 lysate, 10 uM; active = over 0.2 and 3.5 SD of the protein, either way, in both replicates (recomputed)
[1] = compound: CC(=O)c1cnc2ccc(-c3cc(Cl)c(O)c(Cl)c3)nc2c1N[C@H]1CC[C@H](CN(C)C)CC1
How it was run: (§1)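 Pellets of K562 cells were dounce-homogenised in PBS pH 7.4 with 1 mM MgCl2, and the crude extract was held at 1 mg/mL protein for a 30 min treatment with 10 μM compound. Aliquots were heated for 3 min over 48°C-58°C and pooled before NP-40 was added to 0.5% at 4°C. The supernatant from 21,000xg for 90 min was quantified by TMTpro 16plex LC-MS/MS with channel sums equalised. Values are reported from duplicates as log-two fold change in thermal stability relative to solvent controls.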

Sequences of proteins named here, by UniProt entry; tags and fusion partners are left off. A change or cut given only in a name is not applied to a line headed by its entry.
UniProt B5MCY1: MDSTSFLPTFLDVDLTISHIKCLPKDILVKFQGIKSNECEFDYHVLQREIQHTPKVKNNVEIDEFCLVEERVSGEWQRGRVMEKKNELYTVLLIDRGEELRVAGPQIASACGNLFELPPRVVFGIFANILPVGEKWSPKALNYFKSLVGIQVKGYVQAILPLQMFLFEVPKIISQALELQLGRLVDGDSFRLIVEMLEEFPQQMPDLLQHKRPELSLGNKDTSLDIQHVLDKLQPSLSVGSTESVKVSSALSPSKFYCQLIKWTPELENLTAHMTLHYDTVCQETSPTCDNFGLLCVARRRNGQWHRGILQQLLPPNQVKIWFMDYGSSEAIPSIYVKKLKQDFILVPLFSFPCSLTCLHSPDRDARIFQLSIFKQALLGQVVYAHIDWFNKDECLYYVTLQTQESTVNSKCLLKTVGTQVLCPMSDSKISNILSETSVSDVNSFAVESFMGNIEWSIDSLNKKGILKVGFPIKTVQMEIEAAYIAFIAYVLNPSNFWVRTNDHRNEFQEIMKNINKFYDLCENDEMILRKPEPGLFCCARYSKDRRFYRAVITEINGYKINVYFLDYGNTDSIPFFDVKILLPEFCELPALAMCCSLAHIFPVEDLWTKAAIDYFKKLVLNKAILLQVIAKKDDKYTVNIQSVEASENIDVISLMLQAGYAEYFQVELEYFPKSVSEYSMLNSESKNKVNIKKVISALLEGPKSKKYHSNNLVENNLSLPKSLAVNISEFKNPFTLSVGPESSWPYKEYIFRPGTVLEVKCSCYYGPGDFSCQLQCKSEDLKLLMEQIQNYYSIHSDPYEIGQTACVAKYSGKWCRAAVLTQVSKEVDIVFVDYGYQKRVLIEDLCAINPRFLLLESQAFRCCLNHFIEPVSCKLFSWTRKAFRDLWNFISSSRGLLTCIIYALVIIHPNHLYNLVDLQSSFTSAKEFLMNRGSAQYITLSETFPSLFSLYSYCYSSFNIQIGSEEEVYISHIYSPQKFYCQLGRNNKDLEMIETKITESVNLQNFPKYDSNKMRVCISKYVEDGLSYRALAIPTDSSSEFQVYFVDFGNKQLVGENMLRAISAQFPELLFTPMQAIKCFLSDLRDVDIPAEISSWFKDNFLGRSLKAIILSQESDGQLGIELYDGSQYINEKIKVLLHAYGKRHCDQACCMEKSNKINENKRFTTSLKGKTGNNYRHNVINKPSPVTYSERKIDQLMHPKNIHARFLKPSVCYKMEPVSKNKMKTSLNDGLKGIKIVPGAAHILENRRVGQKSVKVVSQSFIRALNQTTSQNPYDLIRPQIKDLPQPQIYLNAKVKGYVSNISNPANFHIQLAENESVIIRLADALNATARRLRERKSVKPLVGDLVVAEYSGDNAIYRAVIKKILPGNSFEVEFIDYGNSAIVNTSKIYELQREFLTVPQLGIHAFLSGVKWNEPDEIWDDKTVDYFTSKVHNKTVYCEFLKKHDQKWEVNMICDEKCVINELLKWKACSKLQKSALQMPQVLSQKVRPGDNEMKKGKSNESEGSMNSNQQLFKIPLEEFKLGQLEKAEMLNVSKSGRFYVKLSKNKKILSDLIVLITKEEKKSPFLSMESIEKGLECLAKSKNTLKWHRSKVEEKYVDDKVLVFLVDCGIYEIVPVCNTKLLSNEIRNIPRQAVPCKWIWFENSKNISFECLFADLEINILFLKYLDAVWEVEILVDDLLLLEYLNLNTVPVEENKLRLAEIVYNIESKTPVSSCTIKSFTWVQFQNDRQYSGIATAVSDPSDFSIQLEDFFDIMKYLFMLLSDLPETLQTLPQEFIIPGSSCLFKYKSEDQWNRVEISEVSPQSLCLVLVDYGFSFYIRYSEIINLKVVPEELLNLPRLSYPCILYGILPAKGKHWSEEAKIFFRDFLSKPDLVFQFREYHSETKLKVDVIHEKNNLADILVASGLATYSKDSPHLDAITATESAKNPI
UniProt Q15561, whole entry, looked up: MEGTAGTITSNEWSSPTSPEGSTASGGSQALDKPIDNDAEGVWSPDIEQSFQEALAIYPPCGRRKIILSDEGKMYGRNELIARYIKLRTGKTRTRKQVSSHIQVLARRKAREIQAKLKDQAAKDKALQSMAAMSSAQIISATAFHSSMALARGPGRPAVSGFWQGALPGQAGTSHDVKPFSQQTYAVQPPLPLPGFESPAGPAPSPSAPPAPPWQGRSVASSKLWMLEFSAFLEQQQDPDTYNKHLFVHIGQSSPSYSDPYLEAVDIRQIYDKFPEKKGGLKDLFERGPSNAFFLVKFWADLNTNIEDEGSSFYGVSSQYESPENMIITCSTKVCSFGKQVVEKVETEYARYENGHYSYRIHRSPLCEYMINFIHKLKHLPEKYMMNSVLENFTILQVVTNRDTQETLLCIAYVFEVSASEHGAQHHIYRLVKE
UniProt Q9UL54: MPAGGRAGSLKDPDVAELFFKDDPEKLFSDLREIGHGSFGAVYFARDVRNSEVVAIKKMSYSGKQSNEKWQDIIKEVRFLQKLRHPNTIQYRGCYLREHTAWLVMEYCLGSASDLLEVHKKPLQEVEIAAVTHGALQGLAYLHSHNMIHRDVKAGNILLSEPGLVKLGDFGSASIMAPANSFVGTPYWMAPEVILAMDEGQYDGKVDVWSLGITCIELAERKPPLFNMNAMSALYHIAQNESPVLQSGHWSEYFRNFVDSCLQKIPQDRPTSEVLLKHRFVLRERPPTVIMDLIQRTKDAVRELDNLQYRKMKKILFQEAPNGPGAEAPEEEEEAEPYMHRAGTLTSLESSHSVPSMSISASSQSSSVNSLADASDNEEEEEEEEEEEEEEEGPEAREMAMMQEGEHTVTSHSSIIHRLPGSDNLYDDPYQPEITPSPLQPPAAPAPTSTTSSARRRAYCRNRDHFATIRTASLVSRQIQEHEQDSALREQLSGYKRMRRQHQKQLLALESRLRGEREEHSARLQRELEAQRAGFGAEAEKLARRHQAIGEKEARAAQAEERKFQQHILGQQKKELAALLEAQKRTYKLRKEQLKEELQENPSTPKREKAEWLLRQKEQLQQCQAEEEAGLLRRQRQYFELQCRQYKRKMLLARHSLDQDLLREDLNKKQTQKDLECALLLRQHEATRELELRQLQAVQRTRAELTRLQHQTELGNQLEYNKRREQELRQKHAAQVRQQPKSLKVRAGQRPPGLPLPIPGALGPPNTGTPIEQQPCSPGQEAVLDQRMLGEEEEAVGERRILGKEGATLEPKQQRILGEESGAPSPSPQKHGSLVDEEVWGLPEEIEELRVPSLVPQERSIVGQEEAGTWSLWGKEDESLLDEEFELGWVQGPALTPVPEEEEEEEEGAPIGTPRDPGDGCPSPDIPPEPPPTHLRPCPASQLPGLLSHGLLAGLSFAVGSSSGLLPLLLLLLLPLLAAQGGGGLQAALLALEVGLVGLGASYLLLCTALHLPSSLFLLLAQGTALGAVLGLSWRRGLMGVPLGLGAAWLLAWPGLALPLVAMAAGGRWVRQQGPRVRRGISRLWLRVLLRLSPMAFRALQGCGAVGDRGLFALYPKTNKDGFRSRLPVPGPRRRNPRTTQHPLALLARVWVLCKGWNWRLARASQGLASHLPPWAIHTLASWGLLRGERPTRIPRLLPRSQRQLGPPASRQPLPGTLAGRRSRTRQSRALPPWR
UniProt Q5QJ74: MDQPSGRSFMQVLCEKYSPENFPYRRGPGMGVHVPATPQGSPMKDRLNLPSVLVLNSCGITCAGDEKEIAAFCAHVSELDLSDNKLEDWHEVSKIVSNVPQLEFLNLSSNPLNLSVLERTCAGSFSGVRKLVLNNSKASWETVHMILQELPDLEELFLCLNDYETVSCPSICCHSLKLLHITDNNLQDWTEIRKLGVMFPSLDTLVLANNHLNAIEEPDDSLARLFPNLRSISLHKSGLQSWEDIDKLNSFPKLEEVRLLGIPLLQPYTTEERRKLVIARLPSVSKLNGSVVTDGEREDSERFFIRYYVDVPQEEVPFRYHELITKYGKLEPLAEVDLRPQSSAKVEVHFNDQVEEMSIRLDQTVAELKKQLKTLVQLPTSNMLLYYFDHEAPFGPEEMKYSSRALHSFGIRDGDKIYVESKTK
UniProt Q3MII6: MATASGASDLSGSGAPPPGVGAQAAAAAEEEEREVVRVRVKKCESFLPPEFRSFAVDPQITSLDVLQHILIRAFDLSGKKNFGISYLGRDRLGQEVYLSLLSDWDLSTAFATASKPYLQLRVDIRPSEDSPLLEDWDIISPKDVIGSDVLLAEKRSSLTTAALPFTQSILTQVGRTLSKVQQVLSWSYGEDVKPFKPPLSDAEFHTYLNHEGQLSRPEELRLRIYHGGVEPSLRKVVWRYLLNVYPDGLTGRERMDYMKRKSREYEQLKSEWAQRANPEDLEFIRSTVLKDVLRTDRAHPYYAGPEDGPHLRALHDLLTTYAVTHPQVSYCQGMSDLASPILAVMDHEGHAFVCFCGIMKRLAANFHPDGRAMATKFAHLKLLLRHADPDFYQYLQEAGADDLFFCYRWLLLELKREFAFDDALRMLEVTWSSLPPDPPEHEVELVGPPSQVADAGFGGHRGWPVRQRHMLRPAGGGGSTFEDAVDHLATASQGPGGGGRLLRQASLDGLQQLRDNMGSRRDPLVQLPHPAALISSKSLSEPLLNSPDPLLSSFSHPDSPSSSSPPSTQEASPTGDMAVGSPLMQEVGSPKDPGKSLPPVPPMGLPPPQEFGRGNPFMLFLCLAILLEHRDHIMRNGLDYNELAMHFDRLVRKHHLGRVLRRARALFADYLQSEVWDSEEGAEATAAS
UniProt P15884: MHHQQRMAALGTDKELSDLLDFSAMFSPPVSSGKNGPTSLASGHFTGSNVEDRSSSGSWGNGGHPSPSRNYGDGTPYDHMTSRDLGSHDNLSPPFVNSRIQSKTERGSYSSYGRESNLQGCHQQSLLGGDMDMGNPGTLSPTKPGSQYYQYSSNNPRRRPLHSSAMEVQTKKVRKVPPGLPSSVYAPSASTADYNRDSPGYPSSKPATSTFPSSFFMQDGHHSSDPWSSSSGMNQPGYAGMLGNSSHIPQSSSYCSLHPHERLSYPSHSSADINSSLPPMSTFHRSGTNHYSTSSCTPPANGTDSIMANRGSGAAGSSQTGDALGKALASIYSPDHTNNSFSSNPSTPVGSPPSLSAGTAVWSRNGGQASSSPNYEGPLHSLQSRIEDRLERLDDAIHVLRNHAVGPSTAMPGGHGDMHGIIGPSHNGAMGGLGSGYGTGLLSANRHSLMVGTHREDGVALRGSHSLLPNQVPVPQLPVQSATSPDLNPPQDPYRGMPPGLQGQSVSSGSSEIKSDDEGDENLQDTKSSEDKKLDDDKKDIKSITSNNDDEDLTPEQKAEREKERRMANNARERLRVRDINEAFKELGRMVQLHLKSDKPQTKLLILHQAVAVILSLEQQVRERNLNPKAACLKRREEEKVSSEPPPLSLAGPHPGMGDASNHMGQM
UniProt Q9UHQ7: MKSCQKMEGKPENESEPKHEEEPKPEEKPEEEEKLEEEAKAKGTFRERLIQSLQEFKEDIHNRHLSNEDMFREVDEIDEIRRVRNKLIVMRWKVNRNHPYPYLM
UniProt Q9NVR7: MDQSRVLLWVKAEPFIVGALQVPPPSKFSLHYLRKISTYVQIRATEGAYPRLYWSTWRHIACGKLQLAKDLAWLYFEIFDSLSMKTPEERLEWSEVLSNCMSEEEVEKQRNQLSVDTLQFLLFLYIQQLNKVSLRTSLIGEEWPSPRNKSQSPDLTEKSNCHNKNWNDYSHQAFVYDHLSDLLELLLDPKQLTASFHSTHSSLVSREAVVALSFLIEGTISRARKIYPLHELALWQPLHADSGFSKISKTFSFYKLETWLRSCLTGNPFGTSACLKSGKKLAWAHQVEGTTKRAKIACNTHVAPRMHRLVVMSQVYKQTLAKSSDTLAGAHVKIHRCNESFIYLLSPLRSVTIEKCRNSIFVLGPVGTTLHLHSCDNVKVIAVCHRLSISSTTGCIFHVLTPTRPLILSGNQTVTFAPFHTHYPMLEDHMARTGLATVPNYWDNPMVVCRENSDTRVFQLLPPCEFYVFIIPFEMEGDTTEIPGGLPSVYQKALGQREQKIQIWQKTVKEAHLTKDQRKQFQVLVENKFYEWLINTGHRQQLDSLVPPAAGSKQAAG
UniProt P10646, whole entry, looked up: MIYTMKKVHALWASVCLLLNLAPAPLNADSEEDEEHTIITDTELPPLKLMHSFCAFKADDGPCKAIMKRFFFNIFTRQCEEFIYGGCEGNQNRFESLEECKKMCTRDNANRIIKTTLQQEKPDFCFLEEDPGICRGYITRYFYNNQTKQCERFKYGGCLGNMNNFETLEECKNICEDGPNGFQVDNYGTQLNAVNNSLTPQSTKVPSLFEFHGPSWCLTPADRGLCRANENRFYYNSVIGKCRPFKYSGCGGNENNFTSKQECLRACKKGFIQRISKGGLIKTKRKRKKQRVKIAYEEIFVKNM
UniProt Q9UI15: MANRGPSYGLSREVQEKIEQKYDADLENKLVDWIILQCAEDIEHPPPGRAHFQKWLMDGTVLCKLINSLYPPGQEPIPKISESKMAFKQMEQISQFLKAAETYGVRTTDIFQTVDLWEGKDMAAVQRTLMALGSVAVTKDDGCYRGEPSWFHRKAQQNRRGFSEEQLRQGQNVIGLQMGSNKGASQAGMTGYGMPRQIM

ralimetinib = compound: CC(C)(C)Cn1c(N)nc2ccc(-c3[nH]c(C(C)(C)C)nc3-c3ccc(F)cc3)nc21 [ralimetinib]
How it was run: as §1

[2] = compound: CC(C)(O)CC(=O)NCCn1ccc2ncnc(Nc3ccc(Oc4cccc(C(F)(F)F)c4)c(Cl)c3)c21
How it was run: as §1

[3] = compound: CC(C)C1=C2N=C(C=C(N2N=C1)NCC3=CC=CC=C3)NCCCCCCN
How it was run: as §1

[4] = compound: CC1=C(C(CC(=O)N1)C2=CC=C(C=C2)C(F)(F)F)C(=O)NC3=C(C=C4C(=C3)C=NN4)F
How it was run: as §1

[5] = compound: CC1=C(C2=C(C=C1)C(=O)C3=CC=CC=C3N2CCCN)C
How it was run: as §1

[6] = compound: CC1=C(C=C(C=C1)NC(=O)C2=CC(=CC=C2)C(C)(C)C#N)NC3=CC4=C(C=C3)N=CN(C4=O)C
How it was run: as §1

[7] = compound: CC1=C(C=C(C=C1)NC(=O)C2=CC(=CC=C2)N(C)C)NC(=O)C3=CC=C(C=C3)O
How it was run: as §1

[8] = compound: CC1=CC=C(C=C1)SC2=C3C=C(SC3=CN=C2)C(=O)N
How it was run: as §1

vemurafenib = compound: CCCS(=O)(=O)Nc1ccc(F)c(C(=O)c2c[nH]c3ncc(-c4ccc(Cl)cc4)cc23)c1F [vemurafenib]
How it was run: as §1

[9] = compound: CCCS(=O)(=O)Nc1ccc(F)c(C(=O)c2c[nH]c3ncc(Cl)cc23)c1F
How it was run: as §1

[10] = compound: CC[C@@H]1C(=O)N(C)c2cnc(Nc3ccc(C(=O)NC4CCN(C)CC4)cc3OC)nc2N1C1CCCC1
How it was run: as §1

volasertib = compound: CC[C@@H]1C(=O)N(C)c2cnc(Nc3ccc(C(=O)N[C@H]4CC[C@H](N5CCN(CC6CC6)CC5)CC4)cc3OC)nc2N1C(C)C [volasertib]
How it was run: as §1

[11] = compound: CCn1c(C(=O)N(C2CC2)C2CC2)cc2c3c(ncn3C)c(Nc3cc(C)n(C)n3)nc21
How it was run: as §1

saracatinib = compound: CN1CCN(CCOc2cc(OC3CCOCC3)c3c(Nc4c(Cl)ccc5c4OCO5)ncnc3c2)CC1 [saracatinib]
How it was run: as §1

sotrastaurin = compound: CN1CCN(c2nc(C3=C(c4c[nH]c5ccccc45)C(=O)NC3=O)c3ccccc3n2)CC1 [sotrastaurin]
How it was run: as §1

ibrutinib = compound: C=CC(=O)N1CCC[C@@H](n2nc(-c3ccc(Oc4ccccc4)cc3)c3c(N)ncnc32)C1 [ibrutinib]
How it was run: as §1

barasertib = compound: CCN(CCCOc1ccc2c(Nc3cc(CC(=O)Nc4cccc(F)c4)[nH]n3)ncnc2c1)CCOP(=O)(O)O [barasertib]
How it was run: as §1

[12] = compound: CCn1cc(-c2ccnc3[nH]c(-c4cccc(CN(C)C)c4)cc23)c(-c2ccc(NC(=O)N(C)C)cc2)n1
How it was run: as §1

[13] = compound: CN1CCC(CNc2ccc3ncc(-c4cccc(OC(F)(F)F)c4)n3n2)CC1
How it was run: as §1

Measured: log2 fold change

TDRD15 (UniProt B5MCY1)
inactive: [1] -0.025 | ralimetinib -0.04 | [2] -0.01 | [3] -0.061 | [4] 0.029 | [5] -0.071 | [6] 0.066 | [7] 0.051 | [8] -0.006 | vemurafenib 0.143 | [9] 0.06 | [10] 0.055 | volasertib -0.182 | [11] -0.044 | saracatinib -0.011 | sotrastaurin -0.034

TAF9B (UniProt Q9HBM6)
inactive: ibrutinib 0.285 | [1] 0.061 | ralimetinib 0.005 | [2] 0 | [3] -0.036 | [5] -0.014 | [6] -0.029 | [7] 0.045 | [8] 0.03 | vemurafenib 0.01 | [9] 0.093 | barasertib -0.108 | [10] 0.057 | volasertib 0 | [11] 0.088 | [12] -0.004 | [13] 0.034 | saracatinib 0.019 | sotrastaurin 0.017

TEAD4 (UniProt Q15561)
inactive: ibrutinib 0.142 | [3] -0.109 | barasertib 0.097

TAOK2 (UniProt Q9UL54)
inactive: ibrutinib -0.009 | [1] 0.151 | ralimetinib -0.035 | [2] -0.033 | [4] -0.072 | [5] -0.053 | [6] -0.037 | [7] -0.044 | [8] 0.024 | vemurafenib -0.039 | [9] -0.041 | barasertib 0.059 | [10] 0.021 | volasertib -0.056 | [11] -0.077 | [12] -0.005 | [13] -0.003 | saracatinib -0.005 | sotrastaurin 0.109

TCOF1 isoform 3 (UniProt Q13428)
inactive: ibrutinib 0.11 | [1] 0.086 | [3] -0.034 | [6] 0.064 | [8] -0.333 | [9] -0.037 | barasertib 0.189 | volasertib -0.14 | [12] -0.244 | [13] -0.346 | sotrastaurin -0.119

TCN1 (UniProt P20061)
inactive: ibrutinib 0.004 | ralimetinib 0.031 | [2] -0.164 | [3] 0.036 | [4] 1.43 | [6] -0.131 | [7] -0.215 | barasertib 0.168 | [10] 0.391 | [11] 0.013 | [12] 0.167 | [13] -0.074 | sotrastaurin 0.015

TAX1BP1 isoform 2 (UniProt Q86VP1)
inactive: ibrutinib -0.005 | ralimetinib 0.073 | [2] -0.092 | [3] -0.069 | [4] -0.296 | [7] 0 | barasertib -0.001 | [11] 0.005

TBCEL (UniProt Q5QJ74)
inactive: ibrutinib -0.148 | ralimetinib 0.151 | [2] -0.334 | [3] -0.091 | [4] 0.084 | [5] 0.022 | [7] -0.402 | vemurafenib -0.022 | barasertib -0.385 | [11] -0.087 | [12] -0.21 | [13] -0.144 | saracatinib -0.018

TDG (UniProt Q13569)
inactive: ibrutinib 0.017 | ralimetinib -0.012 | [2] 0.042 | [4] 0.049 | [5] 0.034 | [6] -0.066 | [7] -0.114 | vemurafenib 0.005 | barasertib 0.012 | [10] 0.132 | [11] 0.143 | [12] -0.02 | [13] -0.014 | saracatinib 0.002 | sotrastaurin -0.015

TBC1D25 (UniProt Q3MII6)
inactive: [1] 0.024 | ralimetinib 0.098 | [2] -0.042 | [3] 0.051 | [4] -0.047 | [5] 0.007 | [6] -0.149 | [7] -0.013 | [8] -0.181 | vemurafenib 0.04 | [9] -0.019 | [10] -0.079 | volasertib 0.187 | [11] 0.009 | [12] 0.199 | [13] -0.005 | saracatinib -0.011 | sotrastaurin 0.241

TCF25 (UniProt Q9BQ70)
inactive: ibrutinib 0.023 | ralimetinib 0.01 | [2] 0 | [3] 0.038 | [4] 0.014 | [5] -0.091 | [6] -0.029 | [7] 0.052 | vemurafenib 0.069 | barasertib 0.028 | [10] 0.129 | [11] 0.045 | [12] -0.037 | [13] -0.057 | saracatinib -0.007 | sotrastaurin 0.01

TAZ (UniProt Q16635)
inactive: [1] -0.048 | [3] -0.067 | [6] 0.065 | [8] 0.002 | [9] 0.026 | volasertib 0.007 | [12] -0.125 | [13] -0.125 | sotrastaurin -0.117

TAOK2 isoform 2 (UniProt Q9UL54)
inactive: [4] 0.034

TCF4 (UniProt P15884)
inactive: [1] -0.285 | ralimetinib -0.069 | [2] 0.005 | [4] 0.007 | [5] -0.019 | [6] -0.056 | [7] 0.003 | [8] -0.035 | [9] -0.015 | [10] -0.017 | volasertib 0.126 | [11] 0.008 | [12] -0.011 | [13] 0.03 | saracatinib 0.021 | sotrastaurin -0.017

TCEAL9 (UniProt Q9UHQ7)
inactive: [4] 0.029 | [6] -0.034 | vemurafenib 0.165 | sotrastaurin 0.06

TFEB (UniProt P19484)
inactive: [4] 0.01 | [6] 0.071 | vemurafenib 0.009 | sotrastaurin 0.091

TASOR (UniProt Q9UK61)
inactive: [3] -0.194 | [5] -0.083 | [6] 0.006 | vemurafenib 0 | [10] 0.047 | saracatinib 0.012 | sotrastaurin 0.201

TBCCD1 (UniProt Q9NVR7)
inactive: ralimetinib -0.044 | [2] 0.09 | [3] -0.14 | [7] -0.054 | [11] 0.049 | [12] -0.045 | [13] 0.152

TCOF1 isoform 6 (UniProt Q13428)
inactive: [1] -0.043 | ralimetinib -0.205 | [2] -0.04 | [3] -0.139 | [4] 0.026 | [5] -0.089 | [6] 0.025 | [7] 0.063 | [8] -0.053 | [9] 0.036 | volasertib -0.153 | [11] 0.039 | saracatinib 0.088 | sotrastaurin -0.04

TERF1 (UniProt P54274)
inactive: [4] 0.048 | [6] 0.035 | vemurafenib -0.032 | [10] -0.166 | sotrastaurin 0.035

TCF3 (UniProt X6REB3)
inactive: vemurafenib 0.075 | [12] 0 | [13] 0.128

TAF8, A0A0A0MRR3
inactive: [5] -0.13 | saracatinib 0.052

TANC2 isoform 2 (UniProt Q9HCD6)
inactive: ralimetinib 0.132 | [2] 0.229 | [3] 0.088 | [4] 0.132 | [5] 0.147 | [7] -0.109 | [11] 0.203 | [12] -0.084 | [13] -0.11 | saracatinib 0.142

TENT2 (UniProt Q6PIY7)
inactive: [5] -0.218 | saracatinib 0.02

TCEAL8 (UniProt Q8IYN2)
inactive: [5] -0.145 | [6] 0.013 | vemurafenib 0.044 | [10] 0.073 | saracatinib -0.02 | sotrastaurin -0.018

TBXAS1 isoform 3 (UniProt P24557)
inactive: [6] -0.004 | sotrastaurin -0.034

TFPI isoform 2 (UniProt P10646)
inactive: [6] -0.034 | vemurafenib 0 | sotrastaurin -0.011

TAGLN3 (UniProt Q9UI15)
inactive: [1] -0.138 | [3] 0.249 | [8] -0.03 | vemurafenib 0.024 | [9] 0.015 | [10] 0.037 | volasertib -0.097 | [12] -0.327 | [13] 0.075

TBCD, A0A0J9YWI5
inactive: [6] 0.081 | [10] -0.067 | sotrastaurin -0.078

TCF3 isoform 2 (UniProt P15923)
inactive: ralimetinib -0.118 | [2] -0.103 | [3] 0.046 | [6] -0.1 | [7] 0.118 | [11] 0.065 | sotrastaurin 0.043

Fetched one by one from the list above, two records:
TERF1 (UniProt P54274)
inactive: [4] 0.048 | [6] 0.035 | vemurafenib -0.032 | [10] -0.166 | sotrastaurin 0.035

TAOK2 (UniProt Q9UL54)
inactive: ibrutinib -0.009 | [1] 0.151 | ralimetinib -0.035 | [2] -0.033 | [4] -0.072 | [5] -0.053 | [6] -0.037 | [7] -0.044 | [8] 0.024 | vemurafenib -0.039 | [9] -0.041 | barasertib 0.059 | [10] 0.021 | volasertib -0.056 | [11] -0.077 | [12] -0.005 | [13] -0.003 | saracatinib -0.005 | sotrastaurin 0.109

Reference: the supplement of paper PMC10849652
